# Source: patent publication US20040024178A1 (priority 1999, published 2004)
# What was measured:
# [1] = general procedure: Fmoc solid-phase peptide synthesis; Fmoc-Asp(OBut)-OPEG-PS resin (0.14 mmole/g); Fmoc-Asp(OBut)-Wang resin (0.76 mmol/g); TBTU/HOBt/DIPEA; HBTU/HOBt/DIPEA; details: whole synthesis, scale of the general procedure 0.0760 mmol, 0.0228 mmole, 0.25 mmol
# [2] = general procedure: Fmoc solid-phase peptide synthesis; Wang; TBTU/HOBt/DIPEA; HBTU/HOBt/DIPEA; details: whole synthesis, LC-MS, scale 0.25 mmol
Substance,final LC-MS purity [1] [%],final LC-MS purity [2] [%]
Decanoyl-Leu-Thr-Pro-Lys(Bio-X)-Ala-Lys-Ala-Ala-Ser-Lys-Ile-Asp-Asp-Gly-Lys(Flu)-Asp-OH (LTPKAKAASKIDDGKD),>90,–
Decanoyl-Lys(Bio-X)-Thr-Pro-Thr-Ala-Lys-Ala-Ala-Ser-Lys-Ile-Asp-Asp-Gly-Lys(Flu)-Asp-OH (KTPTAKAASKIDDGKD),>90,–
Decanoyl-Leu-Thr-Pro-Lys(Bio-X)-Ala-Lys-Ala-Ala-Ser-Lys-Lys(Flu)-Asp-Asp-OH (LTPKAKAASKKDD),>90,–
Decanoyl-Lys(Flu)-Thr-Pro-Thr-Ala-Lys-Ala-Ala-Ser-Lys-Lys(Bio-X)-Asp-Asp-OH (KTPTAKAASKKDD),–,>90

# One purity is given for all peptides; the source may state it once.
